Assay results taken from the supplement of paper PMC10338343.
± gives the standard deviation. This is a selection; strong and weak results do not stand in their true shares. Many of these values have a large error. Some of the results follow.

Legend:
[1] = test system: MIWI (PIWIL1) piRISC loaded with L1MC piRNA (30 nt); assay: pre-steady-state target cleavage rate (min^-1); higher = faster piRNA-guided slicing of the target; conditions: guide: L1MC piRNA 5'p-UAACUAAAUACUAUGCAAGCUGUAGGUCCU;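 further: 1 nM active piRISC with 0.1 nM target library at 33 °C single turnover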
Summary of the method: (§1)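 Cleave-'n-Seq measured uncleaved targets by sequencing after a transcribed, DNA-blocked target RNA library […] was mixed with 1 nM active affinity-purified piRISC holding one synthetic guide, with or without 500 nM GTSF1 partner protein, at 33 °C in HEPES–potassium acetate buffer for 0–8 or 0–960 min. Counts were normalised to depth and to weakly complementary targets, three trials were pooled, and k3 was capped at 0.0001 min^-1. A burst-and-steady-state fit gave the pre-steady-state cleavage rate.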

[2] = test system: EfPiwi piRISC loaded with L1MC piRNA (26 nt); assay: pre-steady-state target cleavage rate (min^-1); guide: L1MC piRNA 5'p-UAACUAAAUACUAUGCAAGCUGUAGG; MIWI and MILI are mouse PIWI proteins and EfPiwi is from a freshwater sponge; tags in brackets are library labels; higher = faster piRNA-guided slicing of the target
Summary of the method: as §1

[3] = auxiliary factor: 500 nM mouse GTSF1
[4] = auxiliary factor: none (no GTSF1)
[5] = auxiliary factor: 500 nM Ephydatia muelleri Gtsf1
[6] = auxiliary factor: none (no Gtsf1)

Row | Sequence | pre-steady-state target cleavage rate [1, 3] | pre-steady-state target cleavage rate [1, 4] | pre-steady-state target cleavage rate [2, 5] | pre-steady-state target cleavage rate [2, 6]
1 | UCCUGGAUGUCGAUGCAUAUUAUUUAGUUA | 0.00245 ± 0.0044 | 0.00112 ± 0.0058 | 0.0047 ± 0.0036 | –
2 | UCCUGGAUGUGCUUGCAAUCAUAAAUCAAA [g14:g20:cont:t1A] | – | 0.000214 ± 0.017 | 0.000185 ± 0.022 | –
3 | UCCUGGAUGUCGAACCAUUGUAUUUAGUAA | – | 0.000431 ± 0.012 | < 0.0001 | –
4 | UCCUGGAUGUCCUAGCAUAGUAAUUAGUUA | – | 0.00131 ± 0.0054 | 0.00124 ± 0.0057 | –
5 | UCCUGGAUCAGCUUGCAAUCAUAAAUCAAA [g14:g22:cont:t1A] | – | 0.000188 ± 0.019 | 0.000259 ± 0.015 | –
6 | UCCUGGAUGUCGAAGCUUAGUAUUUUGUUA | – | 0.000152 ± 0.012 | 0.00015 ± 0.026 | –
7 | UCCUGCUACAGCUAGCAUAGUAUUUUCAAA | – | 0.000702 ± 0.01 | 0.00142 ± 0.0026 | –
8 | UCCUGGAUGAGCUUGCAUAGUAUUUUCAUA | – | 0.00304 ± 0.0036 | 0.00308 ± 0.0031 | –
9 | UCCUGCUACAGCUACCAUAGUAUUUAGUUA | – | 0.002 ± 0.0035 | 0.00308 ± 0.0021 | –
10 | UCCUGGAUGUCGAUGCAUAGUUAAAUCAAA [g10:g17:cont:t1A] | – | 0.000532 ± 0.0094 | 0.000165 ± 0.015 | –
11 | UCCUGGAUGUGCUUCAUAGUAUUUAGUUA | – | 0.00159 ± 0.0038 | 0.00929 ± 0.0056 | –
12 | UCCUGGAUGUCGAAGCAUACUAUUAAGUUA | – | 0.000334 ± 0.018 | 0.000191 ± 0.016 | –
13 | UCCUGGAUGUCGAACCAUAGUAUUUAGUAUA | 0.000465 ± 0.01 | 0.00066 ± 0.0096 | 0.000771 ± 0.0088 | –
14 | UCCUGGAACAGCUUGCAUAGAUAAAUCAAA [g11:g23:cont:t1A] | – | 0.000677 ± 0.0089 | – | 0.000549 ± 0.013
15 | UCCUGGAACAGGUAGCAUAGUAUUUAGUUA | 0.266 ± 0.026 | 0.00407 ± 0.0017 | 0.00892 ± 0.0028 | –
16 | UCCUGGAUGUCGUUGCUUAGUAUAUAGUUA | 0.00019 ± 0.052 | 0.00062 ± 0.0094 | 0.000288 ± 0.015 | –
17 | UCCUGGAUGUCGAUCGCAUAGUAUUUAGUUA | – | 0.000904 ± 0.006 | 0.00287 ± 0.0032 | –
18 | UCCUGGAUGAGCUUGCAUAGUUAAUACAAA | 0.000721 ± 0.011 | 0.000765 ± 0.0081 | 0.00036 ± 0.011 | –
19 | UCCUGGAUGUGCUUUGCAUAGUAUUUAGUUA | 0.251 ± 0.022 | 0.0142 ± 0.0043 | 0.00805 ± 0.003 | –
20 | UCCUGGAUGUGCUUGCAUUGUAUUUAGUAA | 0.0234 ± 0.0059 | 0.00578 ± 0.0023 | 0.00319 ± 0.0044 | –
21 | UCCUGGAUGUCGUUGCAUAGUAUUUACAUA | 0.000462 ± 0.017 | 0.000831 ± 0.0077 | 0.000317 ± 0.0095 | –
22 | UCCUGGAUGUCGAACCAUUCUAUUUAGUUA | 0.000502 ± 0.01 | 0.000328 ± 0.015 | 0.000103 ± 0.023 | –
23 | UCCUGGAUGUCGUUGCAUAGUAUUUAGUAUA | 0.00137 ± 0.0077 | 0.00302 ± 0.0033 | 0.000521 ± 0.0088 | –
24 | UCCUGGAUCAGCUUGGUUAGUAUUUACAAA | 0.00114 ± 0.01 | 0.00087 ± 0.0052 | 0.000345 ± 0.0097 | –
25 | UCCUGGAACUGCAUGCAUAGUAUUUAGUUA | 0.442 ± 0.035 | 0.00687 ± 0.0019 | 0.0126 ± 0.0039 | –
26 | UCCUGGAUGUCGAACCACAGUAUUUAGUUA | 0.000598 ± 0.0075 | 0.000546 ± 0.0075 | 0.000115 ± 0.024 | –

Row | Sequence | pre-steady-state target cleavage rate [1, 3] | pre-steady-state target cleavage rate [1, 4] | pre-steady-state target cleavage rate [2, 5] | pre-steady-state target cleavage rate [2, 6]
27 | UCCUGGAUGAGCUUGCAUAGUAUUUAGUAUA | 0.702 ± 0.054 | 0.0165 ± 0.0055 | 0.00301 ± 0.0034 | –
28 | UCCUCCUACAGCUUGCAUUGUAUUUAGUUA | 0.952 ± 0.034 | 0.0245 ± 0.0055 | 0.0211 ± 0.0059 | –
29 | UCCUGGAUGUGCUUGCAAUCUAUUUAGUAA | 0.000483 ± 0.017 | 0.000178 ± 0.02 | 0.000233 ± 0.016 | –
30 | UCCUGGAUGUGCUUGCAUAGGUAUUUAGUUA | 0.00184 ± 0.0077 | 0.00161 ± 0.0069 | 0.000803 ± 0.0063 | –
31 | UCCUGGAUCAGCUUCGUUAGUAUUUAGUAA | 0.00163 ± 0.0066 | 0.000236 ± 0.009 | 0.0011 ± 0.0072 | –
32 | UCCUGCUACGCUUGCAUAGUAUUUAGUUA | 1.12 ± 0.08 | 0.0532 ± 0.011 | 0.0122 ± 0.0033 | –
33 | UCCUGGAUGUCCAUGCAUAGUAUAUAGUUA | 0.00278 ± 0.0058 | 0.00129 ± 0.0052 | 0.00178 ± 0.0068 | –
34 | UCCUGGAACAGCUUGGAUAGUAUUUUGUUA | 0.745 ± 0.075 | 0.0289 ± 0.0047 | – | 0.000459 ± 0.025
35 | UCCUGGAUCAGGAAGCAUAGUAUUUAGUAA | 0.00326 ± 0.0045 | 0.00178 ± 0.0025 | 0.000398 ± 0.0095 | –
36 | UCCUGGAUGUCGUUGCAUAGUAAUUUAGUUA | 0.00149 ± 0.0077 | 0.00218 ± 0.0051 | 0.00164 ± 0.0072 | –
37 | UCCUGGAUCAGCUUGCAUUGUUUUUAGUUA | 0.0337 ± 0.0067 | 0.00759 ± 0.0022 | 0.000797 ± 0.005 | –
38 | UCCUGGAUGUCGAUGCAUAGUCUUUAGUUA | 0.00279 ± 0.0041 | 0.00206 ± 0.0049 | 0.00301 ± 0.0034 | –
39 | UCCUGGAUGAGCUUGCAGUAGUAUUUAGUUA | 0.00111 ± 0.0085 | 0.00117 ± 0.0081 | 0.00118 ± 0.0085 | –
40 | UCCUCCUACAGCUUGCAUAGUUUUUACAAA | 0.185 ± 0.029 | 0.0016 ± 0.0043 | 0.00552 ± 0.0037 | –
41 | UCCUGGAUGUCGAAGCAUAGUAUUUAGGUUA | 0.00135 ± 0.0057 | 0.000733 ± 0.007 | 0.000425 ± 0.0087 | –
42 | UCCUGGAUGUCCUUGCUUAGUAUUUUGUUA | 0.00363 ± 0.0053 | 0.00178 ± 0.0041 | 0.000325 ± 0.0098 | –
43 | UCCUGCAACAGCUUGGAUAGUAUUUAGUUA | 1.24 ± 0.1 | 0.0688 ± 0.012 | 0.0256 ± 0.0066 | –
44 | UCCUCCUACAGCAUGGAUAGUAUUUAGUUA | 1.38 ± 0.067 | 0.0219 ± 0.0037 | 0.096 ± 0.023 | –
45 | UCCUGGAUGUCGUUGCAAAGUAUUUAGUAA | 0.000693 ± 0.013 | 0.000598 ± 0.0079 | 0.00124 ± 0.0049 | –
46 | UCCUGCUACAGCUUGGUAAGUAUUUUCAAA | 0.00154 ± 0.008 | 0.000452 ± 0.013 | 0.00122 ± 0.0057 | –
47 | UCCUGGAAACAGCUUGCAUAGUAUUUAGUUA | 1.34 ± 0.051 | 0.0675 ± 0.012 | 0.164 ± 0.034 | –
48 | UCCUGGAUGUCCUUGCAUAGUUAUUUAGUUA | 0.00343 ± 0.0047 | 0.00177 ± 0.0053 | 0.00169 ± 0.0048 | –
49 | UCCUGGAUGUCGUUGCAUAGUAAUUAGUUA | 0.00166 ± 0.0055 | 0.00182 ± 0.0041 | 0.00243 ± 0.0026 | –
50 | UCCUCCUACAGGUUGCAAAGUAUUUAGUUA | 1.29 ± 0.06 | 0.0159 ± 0.0033 | 0.0547 ± 0.011 | –
51 | UCCUCCUACAGCUUGCAUAAUAUUUAGUUA | 0.52 ± 0.03 | 0.0234 ± 0.0044 | 0.00664 ± 0.0024 | –
52 | UCCUGGAUCAGCUUGCAUAGUAUUUAGUUA [g2:g22:cont:t1A] | 1.36 ± 0.054 | 0.0516 ± 0.0097 | 0.0886 ± 0.017 | –

2 entries drawn at random from those above, as already listed:
Row | Sequence | pre-steady-state target cleavage rate [1, 3] | pre-steady-state target cleavage rate [1, 4] | pre-steady-state target cleavage rate [2, 5] | pre-steady-state target cleavage rate [2, 6]
33 | UCCUGGAUGUCCAUGCAUAGUAUAUAGUUA | 0.00278 ± 0.0058 | 0.00129 ± 0.0052 | 0.00178 ± 0.0068 | –
40 | UCCUCCUACAGCUUGCAUAGUUUUUACAAA | 0.185 ± 0.029 | 0.0016 ± 0.0043 | 0.00552 ± 0.0037 | –
